The campaign covered roughly 390,000 compounds. About 610 (0.16%) were called active. The shares of active, inactive and inconclusive entries below differ from those in the screen. The call rests on the fitted dose curve; in most records, active means well fitted inhibition curve with a large enough effect; inconclusive means small, poorly fitted or top-dose-only effect, or effect the other way, or another doubt; inactive means no such curve, though single readings can be large or run the other way. Where the call is inconclusive, the potency comes from a doubtful curve fit.
experiment: Nrf2 qHTS screen for inhibitors: counterscreen for cytotoxicity; settings: A549 ARE-Fluc cells, CellTiter-Fluor viability, 18-24 h; activity change, negative = cytotoxicity: at 46 µM (top of the series)
How it was run: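 Cytotoxicity counterscreen: CellTiter-Fluor fluorescence was measured in A549 ARE_Fluc cells after 18-24 h of compound exposure in a concentration series. The subsequent BugLite luminescent read reports ARE-luciferase activity.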
On the % scale 0 is the no-effect control and ±100 the full control effect; potency means the concentration at half of the fitted maximal effect.

| SMILES | Potency | activity change, negative = cytotoxicity |
| --- | --- | --- |
| O=C(Cc1ccc(S(=O)(=O)N2CCOCC2)s1)Nc1ccc(Br)c(C(F)(F)F)c1 | inconclusive: 20.6 µM [falling, single point] |  |
| CCNc1nc(NC(C)(C)C)nc(N2CCCC2)n1 | inconclusive: 18.4 µM [falling, partial curve] |  |
| CCC(=O)N1CCN(c2ccc(Cl)cc2NC(=O)Cc2ccc(Cl)cc2)CC1 | inconclusive: 18.4 µM [falling, single point] |  |
| O=C(N/N=C\c1cc(Cl)ccc1O)c1ccc(S(=O)(=O)N2CCCCC2)cc1 |  | inactive: -16.4% |
| NC(=O)C(C(=O)/C=C/c1ccc(Cl)cc1)=C1SCCS1 | inconclusive: 29.1 µM [falling, single point] |  |
| O=C(Nc1ccc(OC(F)(F)F)cc1)c1ccc2nccnc2c1 | inconclusive: 18.4 µM [falling, partial curve, poor fit] |  |
| CC(C)c1ccc(NC(=S)NNc2ccc(Cl)c(C(=O)O)c2)cc1 | inconclusive: 29.1 µM [falling, single point] |  |
| C=CC[C@H](CC(=O)N(CCO)Cc1ccccc1)C(=O)NC[C@H](OC(=O)[C@@H](CC=C)CC(=O)OC(C)(C)C)c1ccccc1 | inconclusive: 20.6 µM [falling, partial curve, poor fit] |  |
| CN(CC(=O)Nc1ccc(Cl)c(C(F)(F)F)c1)C(=O)c1ccc(OCC2CCCO2)cc1 (stereo not drawn) | inconclusive: 29.1 µM [falling, single point] |  |
| COc1cc2ccccc2cc1C(=O)O |  | inactive: 2.08% |
| Cc1ccc(Nc2nc(Nc3ccc(C)c(C)c3)nc(N3CCOCC3)n2)cc1C | inconclusive: 1.46 µM [activator, full curve, poor fit] |  |
| CC(C(=O)Nc1ccc(S(=O)(=O)N2CCOCC2)cc1)N1CCN(c2ccccn2)CC1 (stereo not drawn) | inconclusive: 6.51 µM [activator, single point] |  |
| CCC1CCCCN1C(=O)c1cc(COc2ccc3ncccc3c2)on1 (stereo not drawn) | inconclusive: 6.51 µM [falling, partial curve, poor fit] |  |
| COc1ccc(-n2c(CCc3ccccc3)nnc2SCC(=O)c2ccc(Cl)cc2)cc1 | inconclusive: 23.1 µM [falling, single point] |  |
| C/C(CC(=O)NCc1ccco1)=N\NC(=O)COc1ccc(C)cc1 |  | inactive: 6.01% |
| COc1cc2c(C#CCCO)c(-c3ccsc3)oc(=O)c2cc1OC |  | inactive: -5.89% |
| COc1ccccc1NC(=O)N(Cc1ccco1)Cc1cc2ccc(C)c(C)c2[nH]c1=O | inconclusive: 11.6 µM [falling, partial curve] |  |
| COc1ccc(S(=O)(=O)NCc2ccco2)c2ccccc12 | inconclusive: 3.26 µM [falling, partial curve, poor fit] |  |
| CCc1ccc(NC(=O)C(=O)NCC(c2cccnc2)N2CCN(C)CC2)cc1 (stereo not drawn) | inconclusive: 20.6 µM [falling, single point] |  |
| COc1ccccc1/C=C1\SC(=S)N(CCC(=O)NCCc2ccc(O)cc2)C1=O | inconclusive: 25.9 µM [falling, partial curve, poor fit] |  |
| CCc1ccc(/C=C2\Oc3cc(OC(=O)N4CCOCC4)ccc3C2=O)cc1 | inconclusive: 29.1 µM [falling, single point] |  |
| Cc1ccc(CN2CCN(C3CCN(S(=O)(=O)c4ccc(C)cc4)CC3)C(=O)C2=O)cc1 | inconclusive: 29.1 µM [activator, partial curve, poor fit] |  |
| Cc1cccc(N2CCN(C(=O)c3cc4c(=O)n(C)c5ccccc5c4s3)CC2)c1C |  | inactive: 7.3% |

| SMILES | Potency | activity change, negative = cytotoxicity |
| --- | --- | --- |
| Cc1ccc(NC(=O)C2CCCN(c3nccc(C)n3)C2)c(C)c1 (stereo not drawn) | inconclusive: 1.3 µM [activator, full curve, poor fit] |  |
| NC(=S)n1[nH]c(-c2ccc([N+](=O)[O-])cc2)c(N=Nc2ccc(Cl)cc2)c1=O | inconclusive: 18.4 µM [falling, partial curve] |  |
| CCCC(=O)C1=C(c2ccc(C)c(C)c2)N(C(=O)CCC)n2c(CC)nnc2S1 |  | inactive: -19.8% |
| CC(=O)NC(=C(Cl)Cl)S(=O)(=O)c1ccccc1 | inconclusive: 20.6 µM [falling, partial curve, poor fit] |  |
| CCNc1nnc(-c2ccc(C)cc2)o1 |  | inactive: -8.49% |
| O=C(NCc1ccccc1)Nc1cccn(Cc2cccc(F)c2)c1=O |  | inactive: -8.03% |
| CN(C)S(=O)(=O)c1cccc(NC(=O)c2ccc3nccnc3c2)c1 | inconclusive: 11.6 µM [falling, partial curve, poor fit] |  |
| COc1ccc(CCNC(=O)c2c(O)c3c([nH]c2=O)CCCC3)cc1 | inconclusive: 7.31 µM [falling, partial curve] |  |
| Cc1nnc(SCC(=O)Nc2cccc(S(N)(=O)=O)c2)n1-c1ccccc1 |  | inactive: -0.135% |
| CC(=O)c1ccc(N2CCN(C(=S)Nc3ccc(Oc4ccccc4)cc3)CC2)cc1 | inconclusive: 7.31 µM [falling, partial curve] |  |
| O=C(O)C1CN(c2nc(Cl)ccc2[N+](=O)[O-])C1 | inconclusive: 20.6 µM [falling, single point] |  |
| COc1cccc(C(=O)N/N=C(\C)CC(=O)Nc2ccc(N(C)C)cc2)c1 | inconclusive: 18.4 µM [falling, partial curve, poor fit] |  |
| O=C(Nc1ccc2oc(=O)ccc2c1)c1cc([N+](=O)[O-])ccc1N1CCOCC1 | inconclusive: 1.84 µM [falling, partial curve, poor fit] |  |
| NS(=O)(=O)c1ccc(N/N=C2/CCCCC2C2CCCCC2)c([N+](=O)[O-])c1 (stereo not drawn) | inconclusive: 25.9 µM [falling, single point] |  |
| COc1ccc(Cn2ccnc2SCC(=O)NCc2ccccc2)cc1 |  | inactive: -4.27% |
| COc1cc(SC#N)ccc1N=Cc1c(C)[nH]n(-c2ccc(C)cc2)c1=O | inconclusive: 29.1 µM [falling, partial curve, poor fit] |  |
| Cc1ccc(OCC(=O)Nc2ccc(O)c(-c3nc4ccccc4o3)c2)cc1 | inconclusive: 16.4 µM [falling, partial curve, poor fit] |  |
| COc1ccc(C2C(=O)N(C3CCCCC3)CC(=O)N2Cc2ccccc2Cl)cc1OC (stereo not drawn) | inconclusive: 29.1 µM [activator, single point] |  |
| N#C/C(=C/c1ccc(-c2ccc(C(=O)O)c(Cl)c2)o1)C(=O)NCC1CCCO1 (stereo not drawn) | inconclusive: 8.2 µM [falling, partial curve] |  |
| O=C(NC(=S)NC1CCCC1)c1ccccc1 |  | inactive: -0.425% |
| Cc1ccc2c(c1)c1c3n2CCNC3CCC1 (stereo not drawn) | inconclusive: 11.6 µM [activator, partial curve, poor fit] |  |
| Oc1cccc2ccc(Nc3ccccn3)nc12 | active: 4.11 µM |  |
| COc1ccc(C2=C(Nc3ccc(F)cc3)c3ccccc3C2=O)cc1 | inconclusive: 32.6 µM [falling, partial curve, poor fit] |  |

By substructure: the compounds so far with a thiophene ring, fused or not

| SMILES | Potency | activity change, negative = cytotoxicity |
| --- | --- | --- |
| O=C(Cc1ccc(S(=O)(=O)N2CCOCC2)s1)Nc1ccc(Br)c(C(F)(F)F)c1 | inconclusive: 20.6 µM [falling, single point] |  |
| COc1cc2c(C#CCCO)c(-c3ccsc3)oc(=O)c2cc1OC |  | inactive: -5.89% |
| Cc1cccc(N2CCN(C(=O)c3cc4c(=O)n(C)c5ccccc5c4s3)CC2)c1C |  | inactive: 7.3% |

Additional compounds

| SMILES | Potency | activity change, negative = cytotoxicity |
| --- | --- | --- |
| O=C1CCCC2=C1C(c1ccco1)Nc1ccc(C(=O)c3ccccc3)cc1N2 (stereo not drawn) | inconclusive: 32.6 µM [falling, partial curve, poor fit] |  |
| CCCCOc1ccc(-c2cc(C(=O)NNC(=S)NCC)c3ccccc3n2)cc1 | inconclusive: 20.6 µM [falling, single point] |  |
| S=C(NCc1ccccc1)Nc1cccc2cnccc12 |  | inactive: -13.1% |
| COc1cc(-c2nnc(SCC(=O)/C(C#N)=C(\C)N)o2)cc(OC)c1OC |  | inactive: -12.7% |
| Cc1coc2c(C)c3oc(=O)c(CC(=O)N4CCCCC4)c(C)c3cc12 |  | inactive: -4.35% |
| CCOC(=O)/C=C/C(=O)Nc1ccc(S(=O)(=O)N(C)c2ccccc2)cc1 |  | inactive: -3.65% |
| COC(=O)C1=C(C)N(CCCC(=O)O)C(=O)NC1c1ccc(C(F)(F)F)cc1 (stereo not drawn) |  | inactive: -2.4% |
| O=C1C=CC(=O)N1c1ccc2ccccc2c1 |  | inactive: 2.74% |
| CCC(=O)N1CCc2cc(S(=O)(=O)CCC(=O)N3CCN(c4ccc(F)cc4)CC3)ccc21 |  | inactive: 8.59% |
| COc1ccc(-c2cc3nc(-c4ccccc4)cc(N4CCCC(O)C4)n3n2)cc1 (stereo not drawn) | inconclusive: 14.6 µM [falling, partial curve, poor fit] |  |
| O=C(Nc1cccnc1)c1ccc(COc2ccccc2Br)cc1 |  | inactive: -26.5% |
| COC1=C(Br)C(=O)c2ncccc2C1=O | inconclusive: 16.4 µM [falling, single point] |  |
| O=C(Nc1ncccc1Cl)C1COc2ccccc2O1 (stereo not drawn) | inconclusive: 18.4 µM [activator, single point] |  |
| O=c1oc2ccccc2n1CCn1c2ccccc2c2nc3ccccc3nc21 | inconclusive: 25.9 µM [falling, partial curve, poor fit] |  |
| CC1CN(c2ccc(C(F)(F)F)cc2[N+](=O)[O-])CCN1S(C)(=O)=O (stereo not drawn) |  | inactive: -9.19% |
| CCOC(=O)N1CCN([N+]([O-])=NOc2cc(O/N=[N+](\[O-])N(C)C)c([N+](=O)[O-])cc2[N+](=O)[O-])CC1 | inconclusive: 20.6 µM [falling, partial curve, poor fit] |  |
| O=C1NC(c2ccccc2)=C(c2ccc3ccccc3n2)C(c2ccc(F)cc2)N1 (stereo not drawn) | inconclusive: 29.1 µM [falling, single point] |  |
| Cc1oc2c(c1C(=O)Nc1ccc(Cl)cc1F)C1=NCCN1C=N2 |  | inactive: 7.93% |
| Cc1ccc(C(=O)Nc2nc3ccccc3[nH]2)cc1 |  | inactive: 0.262% |
| O=C(Nc1ccc(Cl)c(S(=O)(=O)N2CCOCC2)c1)c1ccc(OCC2CCCO2)cc1 (stereo not drawn) | inconclusive: 29.1 µM [falling, single point] |  |
| CCc1cccc(C)c1Nc1c(-c2cccc(O)c2)nc2cnccn12 |  | inactive: 7.82% |
| Cn1c(CCC(=O)Nc2cc(S(C)(=O)=O)ccc2Cl)nc2cc(S(=O)(=O)N3CCOCC3)ccc21 |  | inactive: -0.775% |
